Consider one compound from PMC13424379 (Fundamental Research, 2024).

In this test the test system is Tg (mpx: EGFP) zebrafish. The test is described as follows: Zebrafish immunocompromised model. In kind it is in vivo. The conditions noted are these: 25 µM·L^−1, with 100 µg·mL^−1 vinorelbine, compared to the model group.

With `C=C1CCC[C@]2(C)C=C3OC(=O)C(C)=C3C[C@@H]12` [atractylenolide I], the “immune enhancement (number of neutrophils)” value was “immune-enhancing effect”.
